Assay results as given in publication doi:10.1101/2024.03.18.585503.

By UniProt entry, the sequences of proteins in these tests, tags left out.
UniProt P0CX83: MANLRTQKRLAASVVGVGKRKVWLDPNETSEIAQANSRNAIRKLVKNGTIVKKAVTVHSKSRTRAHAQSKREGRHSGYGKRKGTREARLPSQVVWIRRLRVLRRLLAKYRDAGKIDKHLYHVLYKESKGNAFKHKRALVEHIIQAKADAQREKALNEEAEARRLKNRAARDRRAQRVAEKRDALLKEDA
UniProt P0CX54: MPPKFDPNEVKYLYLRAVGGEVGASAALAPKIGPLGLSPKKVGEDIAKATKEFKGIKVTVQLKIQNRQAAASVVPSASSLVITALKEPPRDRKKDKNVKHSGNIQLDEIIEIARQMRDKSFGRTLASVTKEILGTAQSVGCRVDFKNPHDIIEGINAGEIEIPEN
UniProt P0CX53: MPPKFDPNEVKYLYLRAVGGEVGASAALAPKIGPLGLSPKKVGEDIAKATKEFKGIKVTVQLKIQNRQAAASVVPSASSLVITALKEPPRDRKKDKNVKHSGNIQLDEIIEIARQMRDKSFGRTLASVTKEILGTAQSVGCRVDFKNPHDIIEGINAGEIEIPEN
UniProt P0CX82: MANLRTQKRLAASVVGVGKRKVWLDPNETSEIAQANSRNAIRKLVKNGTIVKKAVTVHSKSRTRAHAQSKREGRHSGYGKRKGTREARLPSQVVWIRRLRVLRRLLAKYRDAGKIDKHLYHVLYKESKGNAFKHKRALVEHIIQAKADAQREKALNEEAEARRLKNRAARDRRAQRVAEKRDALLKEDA

T1: Rpl34a-FLAG (S. cerevisiae) (UniProt P87262)
T1 sequence: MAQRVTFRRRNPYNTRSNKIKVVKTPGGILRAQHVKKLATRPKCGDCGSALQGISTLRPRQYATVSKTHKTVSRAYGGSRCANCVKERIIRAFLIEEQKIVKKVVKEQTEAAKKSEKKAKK

T2: Rpl34b-FLAG (S. cerevisiae) (UniProt P40525)
T2 sequence: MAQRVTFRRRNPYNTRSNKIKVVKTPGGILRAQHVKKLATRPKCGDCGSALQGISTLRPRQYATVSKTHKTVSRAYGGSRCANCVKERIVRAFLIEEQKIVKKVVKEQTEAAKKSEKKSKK


Tests used:
Test in all cases: affinity purification with mass spectrometry
[1] = molecular target: T1, Rpl34a-FLAG (S. cerevisiae)
[2] = molecular target: Rpl19b-FLAG (S. cerevisiae) (UniProt P0CX83)
[3] = molecular target: Rpl12b-FLAG (S. cerevisiae) (UniProt P0CX54)
[4] = molecular target: Rpl12a-FLAG (S. cerevisiae) (UniProt P0CX53)
[5] = molecular target: Rpl19a-FLAG (S. cerevisiae) (UniProt P0CX82)
[6] = molecular target: T2, Rpl34b-FLAG (S. cerevisiae)
[7] = molecular target: Rpl12a-FLAG (S. cerevisiae), P0CX53; settings: remark: other sources report otherwise

binding [2]	binding [3]	Binder	also measured
binds	binds	Rpl36a (protein, UniProt P05745 1-100) MTVKTGIAIGLNKGKKVTSMTPAPKISYKKGAASNRTKFVRSLVREIAGLSPYERRLIDLIRNSGEKRARKVAKKRLGSFTRAKAKVEEMNNIIAASRRH	binding [1]: binds; binding [4]: binds; binding [5]: binds; binding [6]: binds
binds	binds	Rpl17a (protein, UniProt P05740 1-184) MARYGATSTNPAKSASARGSYLRVSFKNTRETAQAINGWELTKAQKYLEQVLDHQRAIPFRRFNSSIGRTAQGKEFGVTKARWPAKSVKFVQGLLQNAAANAEAKGLDATKLYVSHIQVNQAPKQRRRTYRAHGRINKYESSPSHIELVVTEKEEAVAKAAEKKVVRLTSRQRGRIAAQKRIAA	–
–	no binding	Nsa2 (protein, UniProt P40078 1-261) MPQNDYIERHIKQHGKRLDHEERKRKREARESHKISERAQKLTGWKGKQFAKKRYAEKVSMRKKIKAHEQSKVKGSSKPLDTDGDALPTYLLDREQNNTAKAISSSIKQKRLEKADKFSVPLPKVRGISEEEMFKVIKTGKSRSKSWKRMITKHTFVGEGFTRRPVKMERIIRPSALRQKKANVTHPELGVTVFLPILAVKKNPQSPMYTQLGVLTKGTIIEVNVSELGMVTAGGKVVWGKYAQVTNEPDRDGCVNAVLLV	–
–	no binding	Fox2 (enzyme, UniProt Q02207 1-900) MPGNLSFKDRVVVITGAGGGLGKVYALAYASRGAKVVVNDLGGTLGGSGHNSKAADLVVDEIKKAGGIAVANYDSVNENGEKIIETAIKEFGRVDVLINNAGILRDVSFAKMTEREFASVVDVHLTGGYKLSRAAWPYMRSQKFGRIINTASPAGLFGNFGQANYSAAKMGLVGLAETLAKEGAKYNINVNSIAPLARSRMTENVLPPHILKQLGPEKIVPLVLYLTHESTKVSNSIFELAAGFFGQLRWERSSGQIFNPDPKTYTPEAILNKWKEITDYRDKPFNKTQHPYQLSDYNDLITKAKKLPPNEQGSVKIKSLCNKVVVVTGAGGGLGKSHAIWFARYGAKVVVNDIKDPFSVVEEINKLYGEGTAIPDSHDVVTEAPLIIQTAISKFQRVDILVNNAGILRDKSFLKMKDEEWFAVLKVHLFSTFSLSKAVWPIFTKQKSGFIINTTSTSGIYGNFGQANYAAAKAAILGFSKTIALEGAKRGIIVNVIAPHAETAMTKTIFSEKELSNHFDASQVSPLVVLLASEELQKYSGRRVIGQLFEVGGGWCGQTRWQRSSGYVSIKETIEPEEIKENWNHITDFSRNTINPSSTEESSMATLQAVQKAHSSKELDDGLFKYTTKDCILYNLGLGCTSKELKYTYENDPDFQVLPTFAVIPFMQATATLAMDNLVDNFNYAMLLHGEQYFKLCTPTMPSNGTLKTLAKPLQVLDKNGKAALVVGGFETYDIKTKKLIAYNEGSFFIRGAHVPPEKEVRDGKRAKFAVQNFEVPHGKVPDFEAEISTNKDQAALYRLSGDFNPLHIDPTLAKAVKFPTPILHGLCTLGISAKALFEHYGPYEELKVRFTNVVFPGDTLKVKAWKQGSVVVFQTIDTTRNVIVLDNAAVKLSQAKSKL	–
–	–	Mrt4, P33201 1-236 (protein) MPRSKRSKLVTLAQTDKKGRENKERIFDEVREALDTYRYVWVLHLDDVRTPVLQEIRTSWAGSKLIMGKRKVLQKALGEKREEEYKENLYQLSKLCSGVTGLLFTDEDVNTVKEYFKSYVRSDYSRPNTKAPLTFTIPEGIVYSRGGQIPAEEDVPMIHSLEPTMRNKFEIPTKIKAGKITIDSPYLVCTEGEKLDVRQALILKQFGIAASEFKVKVSAYYDNDSSTVESTNINME	binding [7]: no binding
–	binds	Rpl22b (protein, UniProt P56628 1-122) MAPNTSRKQKVIKTLTVDVSSPTENGVFDPASYSKYLIDHIKVDGAVGNLGNAIEVTEDGSIVTVVSSAKFSGKYLKYLTKKYLKKNQLRDWIRFVSIRQNQYKLVFYQVTPEDADEEEDDE	–
–	no binding	Idp1 (enzyme, UniProt P21954 17-428) FSKIKVKQPVVELDGDEMTRIIWDKIKKKLILPYLDVDLKYYDLSVESRDATSDKITQDAAEAIKKYGVGIKCATITPDEARVKEFNLHKMWKSPNGTIRNILGGTVFREPIVIPRIPRLVPRWEKPIIIGRHAHGDQYKATDTLIPGPGSLELVYKPSDPTTAQPQTLKVYDYKGSGVAMAMYNTDESIEGFAHSSFKLAIDKKLNLFLSTKNTILKKYDGRFKDIFQEVYEAQYKSKFEQLGIHYEHRLIDDMVAQMIKSKGGFIMALKNYDGDVQSDIVAQGFGSLGLMTSILVTPDGKTFESEAAHGTVTRHYRKYQKGEETSTNSIASIFAWSRGLLKRGELDNTPALCKFANILESATLNTVQQDGIMTKDLALACGNNERSAYVTTEEFLDAVEKRLQKEIKSIE	–
binds	binds	Stm1 (protein, UniProt P39015 1-273) MSNPFDLLGNDVEDADVVVLPPKEIVKSNTSSKKADVPPPSADPSKARKNRPRPSGNEGAIRDKTAGRRNNRSKDVTDSATTKKSNTRRATDRHSRTGKTDTKKKVNQGWGDDKKELSAEKEAQADAAAEIAEDAAEAEDAGKPKTAQLSLQDYLNQQANNQFNKVPEAKKVELDAERIETAEKEAYVPATKVKNVKSKQLKTKEYLEFDATFVESNTRKNFGDRNNNSRNNFNNRRGGRGARKGNNTANATNSANTVQKNRNIDVSNLPSLA	binding [1]: binds; binding [4]: binds; binding [5]: binds; binding [6]: binds

Results are given in words; binding and its absence hold for the method and conditions named. Binding seen in cells or lysates may run through a third protein. A yes stands for co-enrichment or nearness to the bait. Other partners may have been found. For some of these results: A no says only that the protein was not detected with the bait. For some of these results: Sequences can lack the tags named with a protein.
